This is an account of results in publication PMC4161432.

Sequences of proteins named here, by UniProt entry; tags and fusion partners are left off.
UniProt Q86XR7: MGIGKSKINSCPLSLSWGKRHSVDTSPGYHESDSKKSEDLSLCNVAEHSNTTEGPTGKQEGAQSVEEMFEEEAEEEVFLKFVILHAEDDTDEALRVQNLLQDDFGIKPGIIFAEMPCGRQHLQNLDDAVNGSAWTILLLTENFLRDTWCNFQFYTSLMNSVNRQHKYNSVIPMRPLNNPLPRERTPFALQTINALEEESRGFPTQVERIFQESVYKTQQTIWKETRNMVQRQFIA
UniProt Q99836: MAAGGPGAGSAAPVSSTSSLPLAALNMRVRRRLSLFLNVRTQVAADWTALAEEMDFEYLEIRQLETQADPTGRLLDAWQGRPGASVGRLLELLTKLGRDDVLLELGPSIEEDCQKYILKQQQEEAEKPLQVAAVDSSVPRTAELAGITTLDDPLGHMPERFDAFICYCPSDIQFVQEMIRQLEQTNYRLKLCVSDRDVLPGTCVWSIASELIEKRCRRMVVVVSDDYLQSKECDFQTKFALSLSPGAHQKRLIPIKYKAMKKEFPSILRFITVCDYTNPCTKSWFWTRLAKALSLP

Results are given in words; binding and its absence hold for the method and conditions named. In cells and extracts the contact can be indirect. Some entries that bind do so weakly or less than the wild type.

Assay [1] addresses Flag-tagged TRAM (TRIF related adaptor molecule) (UniProt Q86XR7). Briefly: condition: only unstimulated cells (without the TLR7 ligand CLO97); co-IP; HEK293-TLR7 cells co-transfected with Flag-TRAM and Myc-MyD88, left unstimulated (no CLO97); lysis in low stringency buffer; IP with anti-Flag M2 and Protein A/G beads at 4°C; immunoblot. (In general: A western blot detects proteins with antibodies after separation by electrophoresis.)

Assay [2] shares this target. Briefly: co-IP; HEK293-TLR7 cells co-transfected with Flag-TRAM and Myc-MyD88, stimulated with CLO97 (5 µg/ml) for 15, 30 and 60 min; lysis in low stringency buffer (50 mM HEPES pH 7.5, 150 mM NaCl, 1% NP-40, 0.5% sodium deoxycholate); IP with anti-Flag M2 and Protein A/G beads at 4°C; immunoblot.

For the substance “Myc-tagged MyD88 (from UniProt Q99836 1-296)”, the binding entry is on record as “no binding” in assay [1] and “binds” in assay [2].
